Test results reported in the supplement of paper PMC11732987, “Enantioselective OTUD7B fragment discovery through chemoproteomics screening and high-throughput optimisation” (Communications Chemistry, 2025).
Some of the results follow. The data scatter; read single values as rough.

By UniProt entry, the sequences of proteins in these tests, tags left out. Where a name states a change or a piece, a line headed by the entry shows the natural chain unless it says otherwise.
UniProt Q93096: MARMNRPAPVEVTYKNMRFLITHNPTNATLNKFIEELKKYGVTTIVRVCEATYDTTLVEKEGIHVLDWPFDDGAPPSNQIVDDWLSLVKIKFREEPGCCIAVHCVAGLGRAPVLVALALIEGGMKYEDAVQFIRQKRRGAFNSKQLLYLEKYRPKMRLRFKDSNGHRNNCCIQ
UniProt Q06323: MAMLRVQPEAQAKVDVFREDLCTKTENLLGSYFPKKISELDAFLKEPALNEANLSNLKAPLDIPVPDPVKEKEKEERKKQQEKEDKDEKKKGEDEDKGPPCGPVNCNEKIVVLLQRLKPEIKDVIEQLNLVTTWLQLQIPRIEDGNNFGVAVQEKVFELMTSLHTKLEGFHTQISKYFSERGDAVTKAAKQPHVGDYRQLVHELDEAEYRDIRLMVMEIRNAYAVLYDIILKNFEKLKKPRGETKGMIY
UniProt Q9Y4B4: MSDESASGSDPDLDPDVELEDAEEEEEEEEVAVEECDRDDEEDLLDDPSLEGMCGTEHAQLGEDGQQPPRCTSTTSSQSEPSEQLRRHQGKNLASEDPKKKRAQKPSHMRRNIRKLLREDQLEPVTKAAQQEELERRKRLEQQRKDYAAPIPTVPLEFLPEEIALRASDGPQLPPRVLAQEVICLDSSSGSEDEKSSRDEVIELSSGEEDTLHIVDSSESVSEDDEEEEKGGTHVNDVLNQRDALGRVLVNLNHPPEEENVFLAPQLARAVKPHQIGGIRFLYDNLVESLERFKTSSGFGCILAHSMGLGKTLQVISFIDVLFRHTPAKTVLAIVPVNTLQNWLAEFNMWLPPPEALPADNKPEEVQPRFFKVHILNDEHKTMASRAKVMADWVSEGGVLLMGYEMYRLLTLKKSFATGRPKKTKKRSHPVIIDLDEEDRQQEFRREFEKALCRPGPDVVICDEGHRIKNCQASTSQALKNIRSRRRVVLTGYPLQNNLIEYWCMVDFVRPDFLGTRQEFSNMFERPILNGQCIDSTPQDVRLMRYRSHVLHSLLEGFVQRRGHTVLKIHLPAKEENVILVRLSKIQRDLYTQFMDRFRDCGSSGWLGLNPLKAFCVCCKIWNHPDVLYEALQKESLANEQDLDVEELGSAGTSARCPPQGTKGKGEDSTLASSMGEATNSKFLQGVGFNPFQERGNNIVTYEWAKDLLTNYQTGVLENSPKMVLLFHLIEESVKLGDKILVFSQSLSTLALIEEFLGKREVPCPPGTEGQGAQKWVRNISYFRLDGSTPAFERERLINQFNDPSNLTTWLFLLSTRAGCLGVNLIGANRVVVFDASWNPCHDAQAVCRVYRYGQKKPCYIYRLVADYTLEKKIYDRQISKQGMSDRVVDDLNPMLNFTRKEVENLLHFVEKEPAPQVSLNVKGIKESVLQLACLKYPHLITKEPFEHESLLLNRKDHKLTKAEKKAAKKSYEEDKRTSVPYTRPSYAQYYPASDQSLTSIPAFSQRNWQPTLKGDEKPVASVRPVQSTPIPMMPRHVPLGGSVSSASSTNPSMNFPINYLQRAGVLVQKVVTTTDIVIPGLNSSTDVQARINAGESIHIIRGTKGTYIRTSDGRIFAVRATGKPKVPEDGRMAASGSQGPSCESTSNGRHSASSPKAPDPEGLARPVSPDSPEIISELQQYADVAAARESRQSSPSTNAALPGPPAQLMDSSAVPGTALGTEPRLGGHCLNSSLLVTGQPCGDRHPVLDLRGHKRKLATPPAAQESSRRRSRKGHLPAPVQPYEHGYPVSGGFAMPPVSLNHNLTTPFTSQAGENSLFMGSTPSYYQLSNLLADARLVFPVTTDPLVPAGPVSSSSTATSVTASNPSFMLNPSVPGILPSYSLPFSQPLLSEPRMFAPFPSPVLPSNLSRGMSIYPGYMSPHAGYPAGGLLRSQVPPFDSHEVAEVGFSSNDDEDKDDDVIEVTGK
UniProt Q5THK1: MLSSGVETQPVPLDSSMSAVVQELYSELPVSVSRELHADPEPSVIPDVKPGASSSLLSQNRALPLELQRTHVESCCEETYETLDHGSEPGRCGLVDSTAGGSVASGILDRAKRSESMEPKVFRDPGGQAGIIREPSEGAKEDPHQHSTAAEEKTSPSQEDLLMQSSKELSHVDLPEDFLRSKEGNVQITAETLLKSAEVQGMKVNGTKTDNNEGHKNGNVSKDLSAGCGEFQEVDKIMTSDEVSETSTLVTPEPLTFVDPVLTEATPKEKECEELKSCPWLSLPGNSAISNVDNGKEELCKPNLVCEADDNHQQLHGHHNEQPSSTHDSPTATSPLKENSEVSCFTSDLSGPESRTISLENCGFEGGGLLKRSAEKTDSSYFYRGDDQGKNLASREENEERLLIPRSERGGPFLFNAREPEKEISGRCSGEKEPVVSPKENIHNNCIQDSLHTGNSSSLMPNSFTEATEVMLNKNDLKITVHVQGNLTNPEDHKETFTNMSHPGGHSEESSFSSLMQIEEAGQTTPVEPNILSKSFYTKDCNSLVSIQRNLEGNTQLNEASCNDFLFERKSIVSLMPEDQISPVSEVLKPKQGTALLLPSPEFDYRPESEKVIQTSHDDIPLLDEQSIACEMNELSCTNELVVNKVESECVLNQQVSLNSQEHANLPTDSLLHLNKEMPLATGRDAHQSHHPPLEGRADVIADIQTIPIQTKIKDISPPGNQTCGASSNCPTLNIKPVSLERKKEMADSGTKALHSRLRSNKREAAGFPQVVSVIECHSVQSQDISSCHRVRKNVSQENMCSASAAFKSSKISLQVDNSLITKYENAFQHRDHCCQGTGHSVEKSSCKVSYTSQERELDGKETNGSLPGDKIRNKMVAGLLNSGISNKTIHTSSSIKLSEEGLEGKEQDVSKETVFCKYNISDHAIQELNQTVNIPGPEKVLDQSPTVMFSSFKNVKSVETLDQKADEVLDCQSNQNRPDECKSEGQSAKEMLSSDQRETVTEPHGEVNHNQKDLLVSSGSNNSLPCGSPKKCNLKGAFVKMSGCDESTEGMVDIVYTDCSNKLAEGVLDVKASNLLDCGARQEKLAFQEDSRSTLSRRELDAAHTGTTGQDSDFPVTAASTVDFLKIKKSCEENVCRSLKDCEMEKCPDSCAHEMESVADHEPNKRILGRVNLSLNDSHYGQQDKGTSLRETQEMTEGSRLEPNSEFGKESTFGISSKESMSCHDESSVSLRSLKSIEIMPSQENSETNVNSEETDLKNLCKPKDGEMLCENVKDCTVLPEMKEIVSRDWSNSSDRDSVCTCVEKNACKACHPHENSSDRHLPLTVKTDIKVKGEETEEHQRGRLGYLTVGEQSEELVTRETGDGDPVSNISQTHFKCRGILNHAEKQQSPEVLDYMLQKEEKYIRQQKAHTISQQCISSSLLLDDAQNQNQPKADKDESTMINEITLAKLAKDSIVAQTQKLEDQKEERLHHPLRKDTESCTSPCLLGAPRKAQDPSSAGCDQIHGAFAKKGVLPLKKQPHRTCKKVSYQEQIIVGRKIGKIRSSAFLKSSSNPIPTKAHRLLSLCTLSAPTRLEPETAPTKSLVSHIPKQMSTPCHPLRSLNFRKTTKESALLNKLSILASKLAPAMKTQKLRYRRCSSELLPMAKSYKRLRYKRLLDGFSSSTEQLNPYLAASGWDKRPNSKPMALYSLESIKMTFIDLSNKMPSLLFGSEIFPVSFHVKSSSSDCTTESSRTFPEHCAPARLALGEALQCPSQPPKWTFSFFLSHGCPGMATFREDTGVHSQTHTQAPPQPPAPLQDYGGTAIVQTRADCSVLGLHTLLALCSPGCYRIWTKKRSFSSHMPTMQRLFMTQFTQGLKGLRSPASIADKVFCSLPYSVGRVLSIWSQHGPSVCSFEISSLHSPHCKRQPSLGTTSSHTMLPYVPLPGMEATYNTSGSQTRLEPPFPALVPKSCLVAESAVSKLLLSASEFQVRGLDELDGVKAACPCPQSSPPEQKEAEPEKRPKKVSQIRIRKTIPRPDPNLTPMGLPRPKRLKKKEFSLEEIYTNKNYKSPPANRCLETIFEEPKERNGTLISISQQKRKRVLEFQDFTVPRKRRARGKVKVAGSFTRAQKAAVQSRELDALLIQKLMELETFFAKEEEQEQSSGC
UniProt Q99436: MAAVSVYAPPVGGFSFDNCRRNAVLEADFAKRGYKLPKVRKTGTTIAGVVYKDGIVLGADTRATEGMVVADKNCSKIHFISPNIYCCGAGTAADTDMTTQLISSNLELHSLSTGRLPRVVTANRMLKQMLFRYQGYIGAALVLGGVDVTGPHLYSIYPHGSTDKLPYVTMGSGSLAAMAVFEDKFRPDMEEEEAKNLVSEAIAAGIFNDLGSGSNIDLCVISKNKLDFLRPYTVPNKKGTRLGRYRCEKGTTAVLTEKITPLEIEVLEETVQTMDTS
UniProt P20337: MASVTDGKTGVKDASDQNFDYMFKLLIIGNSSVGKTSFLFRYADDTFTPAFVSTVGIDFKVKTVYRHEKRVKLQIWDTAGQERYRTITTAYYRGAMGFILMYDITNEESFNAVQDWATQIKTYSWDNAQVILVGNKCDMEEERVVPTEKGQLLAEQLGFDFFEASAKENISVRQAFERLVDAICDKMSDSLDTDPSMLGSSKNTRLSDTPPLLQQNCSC
UniProt Q05397, whole entry, looked up: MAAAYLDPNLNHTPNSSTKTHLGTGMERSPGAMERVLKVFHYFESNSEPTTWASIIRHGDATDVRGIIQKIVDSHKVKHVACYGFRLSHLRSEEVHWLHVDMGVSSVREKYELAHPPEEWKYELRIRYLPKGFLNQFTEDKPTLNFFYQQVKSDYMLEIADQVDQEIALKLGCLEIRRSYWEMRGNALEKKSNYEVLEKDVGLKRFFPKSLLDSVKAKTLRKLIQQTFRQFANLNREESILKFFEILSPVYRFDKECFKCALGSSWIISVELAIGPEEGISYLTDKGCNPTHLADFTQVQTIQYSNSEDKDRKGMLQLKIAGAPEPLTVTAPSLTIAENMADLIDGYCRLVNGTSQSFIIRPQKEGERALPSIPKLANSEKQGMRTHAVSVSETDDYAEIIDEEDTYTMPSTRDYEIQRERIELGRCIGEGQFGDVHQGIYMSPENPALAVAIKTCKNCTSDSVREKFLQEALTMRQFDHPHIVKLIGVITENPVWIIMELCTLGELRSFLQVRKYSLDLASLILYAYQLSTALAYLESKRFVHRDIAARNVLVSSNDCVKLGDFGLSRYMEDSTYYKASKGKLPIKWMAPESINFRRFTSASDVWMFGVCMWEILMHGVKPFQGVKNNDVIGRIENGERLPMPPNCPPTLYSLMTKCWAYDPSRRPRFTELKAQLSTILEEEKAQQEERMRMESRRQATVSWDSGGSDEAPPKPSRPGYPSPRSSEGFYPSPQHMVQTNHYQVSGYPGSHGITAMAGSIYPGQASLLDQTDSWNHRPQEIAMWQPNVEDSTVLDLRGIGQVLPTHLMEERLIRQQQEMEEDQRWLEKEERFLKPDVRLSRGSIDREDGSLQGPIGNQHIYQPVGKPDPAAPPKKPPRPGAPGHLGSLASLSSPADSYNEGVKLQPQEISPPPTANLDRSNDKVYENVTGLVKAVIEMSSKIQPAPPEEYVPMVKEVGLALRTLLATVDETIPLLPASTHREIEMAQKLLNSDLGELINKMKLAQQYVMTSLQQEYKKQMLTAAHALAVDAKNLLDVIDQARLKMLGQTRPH
UniProt Q9Y620: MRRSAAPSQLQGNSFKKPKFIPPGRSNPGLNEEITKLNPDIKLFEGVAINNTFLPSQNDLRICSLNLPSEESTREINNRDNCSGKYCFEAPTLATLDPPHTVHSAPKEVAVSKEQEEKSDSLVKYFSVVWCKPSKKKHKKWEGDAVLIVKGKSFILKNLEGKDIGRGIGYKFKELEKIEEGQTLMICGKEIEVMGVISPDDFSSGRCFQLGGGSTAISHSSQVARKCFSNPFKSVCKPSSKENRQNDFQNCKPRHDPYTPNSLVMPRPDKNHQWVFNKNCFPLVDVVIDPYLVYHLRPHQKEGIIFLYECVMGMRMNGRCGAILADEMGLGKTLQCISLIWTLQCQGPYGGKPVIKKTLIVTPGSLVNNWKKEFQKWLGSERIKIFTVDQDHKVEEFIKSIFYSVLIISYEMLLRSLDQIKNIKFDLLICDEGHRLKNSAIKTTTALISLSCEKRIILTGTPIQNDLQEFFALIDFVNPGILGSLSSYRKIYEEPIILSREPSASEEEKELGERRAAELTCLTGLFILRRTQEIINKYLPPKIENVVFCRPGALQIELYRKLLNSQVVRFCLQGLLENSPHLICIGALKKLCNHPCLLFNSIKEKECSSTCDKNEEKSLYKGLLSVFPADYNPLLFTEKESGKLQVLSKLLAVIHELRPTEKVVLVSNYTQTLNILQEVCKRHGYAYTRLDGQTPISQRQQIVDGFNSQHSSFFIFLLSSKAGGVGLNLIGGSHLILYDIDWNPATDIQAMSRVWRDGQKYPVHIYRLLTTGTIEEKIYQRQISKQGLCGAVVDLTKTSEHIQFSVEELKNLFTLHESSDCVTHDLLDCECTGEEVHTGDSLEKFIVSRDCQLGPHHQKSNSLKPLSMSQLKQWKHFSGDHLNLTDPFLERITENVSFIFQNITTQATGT

These targets were tested with ClCC(=O)N[C@H]1CCCc2ccccc12 (assay: log2 mean competition ratio of IA-DTB cysteine labelling (DMSO/compound) (log2 ratio); higher = stronger cysteine engagement by compound). Settings: 200 µM; treatment time: 4 h; cell line lysate: HEK293T.
Description: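 IA-DTB competitive cysteine chemoproteomics in HEK293T RIPA lysate. Lysates were treated with compound 29 or 30 at 50 or 200 µM for 4 h, then IA-DTB (500 µM, 1 h), trypsin-digested, NeutrAvidin-enriched and analysed by diaPASEF. Competition ratio = intensity DMSO / intensity compound (n=4 treated, n=64 DMSO); binding: mean log2 CR ≥ 1 and p ≤ 0.05 plus QC filters. Target is the cysteine site.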

| Target | log2 mean competition ratio |
| --- | --- |
| PTP4A1 C49 (UniProt Q93096) | 0.00604 |
| PRRC2C C620 (UniProt Q9Y520) | -0.269 |
| PSME1 C22 (UniProt Q06323) | 0.113 |
| RAD54L2 C184 (UniProt Q9Y4B4) | -0.471 |
| RADIL C73 | 0.183 |
| RAD50 C48 | 0.0501 |
| PTPN11 C259 | 0.713 |
| PRR14L C1730 (UniProt Q5THK1) | 0.348 |
| PSMA3 C42 | 0.0231 |
| R3HCC1L C469 | 0.214 |
| PSMB7 C74 (UniProt Q99436) | 0.00502 |
| RAB3B C184 (UniProt P20337) | -0.0416 |
| PTPN13 C798 (UniProt Q12923) | 0.559 |
| PTK2 C559 (UniProt Q05397) | 0.0903 |
| RAD54B C251 (UniProt Q9Y620) | 0.145 |
| PYGO1 C317 | 0.0788 |

Shown with each value named: entries from further up
PSMA3 C42
  log2 mean competition ratio: 0.0231
PTPN13 C798 (UniProt Q12923)
  log2 mean competition ratio: 0.559
